In paper PMC5762833:
Results are given in words; binding and its absence hold for the method and conditions named. Binding seen in cells or lysates may run through a third protein. A yes stands for co-enrichment or nearness to the bait. Other partners may have been found.

Amino acid sequences for entries named in this document (tags omitted). A change or cut given only in a name is not applied to a line headed by its entry.
UniProt P24557: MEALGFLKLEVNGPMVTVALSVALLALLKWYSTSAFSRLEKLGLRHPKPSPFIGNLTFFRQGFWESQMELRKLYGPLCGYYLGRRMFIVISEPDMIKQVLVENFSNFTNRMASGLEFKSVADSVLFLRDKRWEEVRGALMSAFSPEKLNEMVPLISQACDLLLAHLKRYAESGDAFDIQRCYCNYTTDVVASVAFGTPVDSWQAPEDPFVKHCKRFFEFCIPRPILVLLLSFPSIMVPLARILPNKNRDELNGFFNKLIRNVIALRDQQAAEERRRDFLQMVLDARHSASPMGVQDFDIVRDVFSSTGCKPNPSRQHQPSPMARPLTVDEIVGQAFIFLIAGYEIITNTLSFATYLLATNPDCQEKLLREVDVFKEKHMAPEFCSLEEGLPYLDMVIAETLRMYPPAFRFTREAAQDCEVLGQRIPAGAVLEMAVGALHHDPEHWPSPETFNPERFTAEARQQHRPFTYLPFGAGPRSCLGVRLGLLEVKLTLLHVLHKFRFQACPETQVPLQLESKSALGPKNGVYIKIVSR

Target: Human thromboxane synthase (TBXAS1) (human) (UniProt P24557)
Test: affinity purification with mass spectrometry; direct molecular fishing: TBXAS1 covalently immobilised on CNBr-Sepharose 4B in a 200 µL microcolumn; human liver tissue lysate passed in HBS-EP+ (10 mM HEPES pH 7.4, 150 mM NaCl, 3 mM EDTA, 0.05% Tween 20) at 15°C; elution with 4% HCOOH (pH 2.5); LC-MS/MS; control column of empty inactivated sorbent; only the target purified

B1: Ankyrin repeat and MYND domain-containing protein 1 (protein, UniProt Q9P2S6 1-941)
chain: MYQGEFGLNMKLGYGKFSWPTGESYHGQFYRDHCHGLGTYMWPDGSSFTGTFYLSHREGYGTMYMKTRLFQGLYKADQRFGPGVETYPDGSQDVGLWFREQLIKLCTQIPSGFSLLRYPEFSSFITHSPARISLSEEEKTEWGLQEGQDPFFYDYKRFLLNDNLTLPPEMYVYSTNSDHLPMTSSFRKELDARIFLNEIPPFVEDGEPWFIINETPLLVKIQKQTYKFRNKPAHTSWNMGAILEGKRSGFAPCGPKEQLSMEMILKAEEGNHEWICRILKDNFASADVADAKGYTVLAAAATHCHNDIVNLLLDCGADVNKCSDEGLTALSMCFLLHYPAQSFKPNVAERTIPEPQEPPKFPVVPILSSSFMDTNLESLYYEVNVPSQGSYELRPPPAPLLLPRVSGSHEGGHFQDTGQCGGSIDHRSSSLKGDSPLVKGSLGHVESGLEDVLGNTDRGSLCSAETKFESNVCVCDFSIELSQAMLERSAQSHSLLKMASPSPCTSSFDKGTMRRMALSMIERRKRWRTIKLLLRRGADPNLCCVPMQVLFLAVKAGDVDGVRLLLEHGARTDICFPPQLSTLTPLHIAAALPGEEGVQIVELLLHAITDVDAKASDEDDTYKPGKLDLLPSSLKLSNEPGPPQAYYSTDTALPEEGGRTALHMACEREDDNKCARDIVRLLLSHGANPNLLWSGHSPLSLSIASGNELVVKELLTQGADPNLPLTKGLGSALCVACDLTYEHQRNMDSKLALIDRLISHGADILKPVMLRQGEKEAVGTAVDYGYFRFFQDRRIARCPFHTLMPAERETFLARKRLLEYMGLQLRQAVFAKESQWDPTWLYLCKRAELIPSHRMKKKGPSLPRGLDVKEQGQIPFFKFCYQCGRSIGVRLLPCPRCYGILTCSKYCKTKAWTEFHKKDCGDLVAIVTQLEQVSRRREEFQ
  binding: binds

B2: BBSome-interacting protein 1 (protein, UniProt A8MTZ0 1-92)
chain: MLKAAAKRPELSGKNTISNNSDMAEVKSMFREVLPKQGPLFVEDIMTMVLCKPKLLPLKSLTLEKLEKMHQAAQNTIRQQEMAEKDQRQITH
  binding: binds
